doi:10.1101/2021.10.12.464104
Results are given in words; binding and its absence hold for the method and conditions named. In cells and extracts the contact can be indirect. Some binding calls cover weakened binding; strength is not graded here.

Protein sequences, listed by entry. Tags and fused reporters are not part of them. Residues count along the entry.
UniProt O00168, residues 21-92: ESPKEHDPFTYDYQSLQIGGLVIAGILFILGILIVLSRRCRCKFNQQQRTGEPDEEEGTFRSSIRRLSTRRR

biological target: mCyRFP1-α2 (human Na+/K+-ATPase α2 subunit fused to mCyRFP1) (human) (UniProt P50993); experiment: FRET or BRET

Substance | binding
PLM-mMaroon1 (human phospholemman with mMaroon1 at its C-terminus) (from UniProt O00168 21-92) | binds
mCyRFP1-α2 (human Na+/K+-ATPase α2 subunit fused to mCyRFP1) (from UniProt P50993 1-1020) | binds
mCyRFP1-α3 (human Na+/K+-ATPase α3 subunit fused to mCyRFP1) (from UniProt P13637 1-1013) | binds
